No constants are given. Whether binding was seen depends on the method and setting. Some binding calls cover weakened binding; strength is not graded here.
Assays:
[1] = biological target: T1, farnesylated GBP1 (guanylate binding protein 1) (human), P32455; assay: dynamic light scattering; details: remark: other sources report otherwise
T1 chain: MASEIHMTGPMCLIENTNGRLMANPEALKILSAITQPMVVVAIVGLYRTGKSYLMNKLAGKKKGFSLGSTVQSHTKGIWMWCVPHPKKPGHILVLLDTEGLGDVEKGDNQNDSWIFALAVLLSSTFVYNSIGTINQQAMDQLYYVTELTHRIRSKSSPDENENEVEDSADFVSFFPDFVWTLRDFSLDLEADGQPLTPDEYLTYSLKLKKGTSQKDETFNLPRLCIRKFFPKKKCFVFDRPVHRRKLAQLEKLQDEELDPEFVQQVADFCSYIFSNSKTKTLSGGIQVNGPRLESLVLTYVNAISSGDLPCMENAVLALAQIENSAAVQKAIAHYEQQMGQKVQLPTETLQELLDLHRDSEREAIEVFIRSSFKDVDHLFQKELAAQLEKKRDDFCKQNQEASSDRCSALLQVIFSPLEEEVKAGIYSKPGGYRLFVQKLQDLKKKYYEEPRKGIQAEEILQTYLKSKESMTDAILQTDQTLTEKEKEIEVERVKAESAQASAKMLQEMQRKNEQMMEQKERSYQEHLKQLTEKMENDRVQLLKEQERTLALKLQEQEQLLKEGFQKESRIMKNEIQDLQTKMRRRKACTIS

[2] = biological target: T1, farnesylated GBP1 (guanylate binding …); assay: absorbance-based light scattering; details: remark: other sources report otherwise

- binding [1]: binds
- binding [2]: binds
B1: farnesylated GBP1 (guanylate binding protein 1), P32455 1-592 (protein)
chain: T1 chain
modifications: here or on the partner: farnesylated in vitro (C-terminal farnesyl moiety); farnesylated in vitro (C-terminal farnesyl moiety)

Reference: paper doi:10.1101/2022.10.05.511023 (bioRxiv, 2022)
